## Screening data, single-dose tests

The filed quantity is “Percent Effect” (%).
How 0% and 100% were set is not recorded. Most values in the screen are low, and negative values occur.
Compounds were drawn at random from those tested, without regard to their results.
Two or more numbers in one place are separate tests of the same structure; such repeats can differ widely.

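Growth of Mycobacterium tuberculosis over 3 days (7H9 medium with glucose and tyloxapol); the read-out is not stated. Compounds at 50 µM. The record gives no direction; compounds that gave an IC50 in retests scored well above the rest, so higher reads as more growth inhibition. Of about 69,000 compounds tested this way, about 760 (1.1%) reached 50% or more in at least one test.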

| # | SMILES | effect |
|---|---|---|
| 1 | `Cc1cn2c(n1)CCC(NC(=O)CCC(F)(F)F)C2` (stereo not drawn) | 22.9 |
| 2 | `CCn1c(C)nnc1SCCNC(=O)c1cccc2ccnn12` | -48.35 |
| 3 | `COc1cccc(CNc2cc(C)nc(-c3ccncc3)n2)c1O` | 36.02 |
| 4 | `COCCCN1CCC(NC(=O)C2CC2)CC1` | -0.9603 |
| 5 | `CCOC(=O)CN1CCC(NC(=O)OC(C)(C)C)CC1` | -2.853 |
| 6 | `O=C(CCc1ccco1)Nc1cccc(S(=O)(=O)C(F)F)c1` | 0.6159 |
| 7 | `CN(C)C(=O)N1CCCC(C(=O)N(C)Cc2cnc(N)nc2)C1` (stereo not drawn) | -0.1766 and 2.074 |
| 8 | `[H][C@@]12CCN(Cc3ccsc3)[C@]1([H])CC[C@H](C(=O)NC1CC1)O2` | 12.67 and -0.205 |
| 9 | `O=C(O)C(F)(F)F.O=C(c1ccoc1)N1CCOC2(COCCN(CC3CC3)C2)C1` (stereo not drawn) | 22.75 |
| 10 | `Cn1ccc2c(cnc3nc(-c4ccncc4)nn32)c1=O` | -0.9381 |
| 11 | `[H][C@@]12C[C@@H](OC)C[C@]1([H])CN(C(=O)c1cc3ccc(F)cc3[nH]1)C2` | 22.85 |
| 12 | `O=C(NCC1CCOC1)c1cc(-c2ccccc2Cl)[nH]n1` (stereo not drawn) | -15.12 and 4.127 |
| 13 | `Cc1ccc(-c2nc(CN(Cc3ccco3)C3CCS(=O)(=O)C3)cs2)o1` (stereo not drawn) | 6.155 |
| 14 | `Cc1cccc(C(=O)NC(CN2CCCC2=O)c2ccccc2)n1` (stereo not drawn) | 7.225 |
| 15 | `COC(=O)c1ccc(C2CC(=O)Nc3c2cnn3C)cc1` (stereo not drawn) | 8.627 |
| 16 | `CN(CCCOc1ccccc1Cl)C(=O)CN1CCNC1=O` | 1.003 |
| 17 | `CN(C)C(=O)CC1CC2(CCN(CC3CC3)CC2)c2cc(F)ccc21.O=C(O)C(F)(F)F` (stereo not drawn) | -5.806 |
| 18 | `OCC1CCCN1c1cc(NCCc2c[nH]c3ccccc23)ncn1` (stereo not drawn) | 22.66 and 33.87 |
| 19 | `CN(C)[C@H]1CCCCN(Cc2ccccc2Cn2cccn2)C1` | 12.35 and 26.52 |
| 20 | `COCc1cc(N(C)Cc2ccccn2)nc(C(C)(C)C)n1` | 15.12 and 8.904 |
| 21 | `Cc1nn(C)c(N(C)C)c1CNCCNS(C)(=O)=O` | -22 |
| 22 | `COCCN(C)C(=O)c1ccccc1-n1cc(CN(C)C)cn1` | 10.66 |
| 23 | `Cc1nc(C2CCCN(C(=O)Cn3ccccc3=O)C2)no1` (stereo not drawn) | -11.95 |
| 24 | `Cc1cnn(C2CN(Cc3noc(C4CC4)n3)C2)c1` | 2.973 |
| 25 | `COCCC(C)NCc1ccccc1-n1ccnc1` (stereo not drawn) | -30.82 and -1.204 |
| 26 | `Cc1cc(C)nc(N2CCCC2c2[nH]ncc2C(=O)N(C)C)n1` (stereo not drawn) | 15.97 |
| 27 | `CC(=O)NCCNC(=O)C1(Oc2cccnc2C)CCNCC1` | -9.147 and 2.023 |
| 28 | `O=C(O)C(F)(F)F.O=C(c1cccc(Cl)c1)N1CCCn2c(CN3CCCCC3)nnc2C1` | -8.773 |
| 29 | `CC(C)(C)S(=O)(=O)c1ccc(N2CCC(n3ccnc3)CC2)cn1` | -11.12 |
| 30 | `Cc1nn(C)c(C)c1NC(=O)CN1CCOC(CN(C)C)C1` (stereo not drawn) | 7.343 and 1.306 |
| 31 | `COCCN1CCCCC12CC(=O)N(c1ccccc1OC)C2.O=C(O)C(F)(F)F` (stereo not drawn) | -9.775 |
| 32 | `CN(C)c1cc(C(=O)N2CCCN(Cc3cscn3)CC2)ccn1` | -7.08 |
| 33 | `CC(C)Cc1cc(CNC(=O)c2ccccc2C2CCNC2)no1` (stereo not drawn) | 9.505 and -5.854 |
| 34 | `CSC(C)C(=O)N1CCC(Oc2cc(C)ccc2F)(C(=O)O)CC1` (stereo not drawn) | 15.9 |
| 35 | `CCOc1cc(C)nc(N2CCN(C(=O)c3cc[nH]n3)CC2)n1` | 3.937 and -7.388 |
| 36 | `[H][C@@]12C[C@H](C(=O)NCC(C)C)[C@@]([H])(CN(S(=O)(=O)c3cccc(C)c3)C1)O2` | -8.938 and -8.974 |
| 37 | `N#Cc1cccnc1N1CCCC(CO)(Cc2cccc(Cl)c2)C1` (stereo not drawn) | -5.545 |
| 38 | `Cc1nn(C)c(C)c1-c1ccc(=O)n(C(C)C(=O)NC2CCCCC2)n1` (stereo not drawn) | 4.457 |
| 39 | `CCc1nc(CN2CCCN(C(=O)c3cn[nH]c3CC)CC2)cs1` | -5.591 |
| 40 | `CC(C)(C(=O)N1CCC(CS(N)(=O)=O)CC1)c1ccccc1F` | -8.754 |
| 41 | `COc1cccc(C2(NC(=O)CCNC(C)=O)CC2)c1` | -14.99 and 0.4223 |
| 42 | `CCOCC(=O)Nc1ncc(I)cc1C` | 11.61 |
| 43 | `COCCCN1CC2(CCCN(c3ncc4nc[nH]c4n3)C2)CCC1=O` (stereo not drawn) | 23.38 |
| 44 | `CN(Cc1ccco1)Cc1cncc2c1CCN(c1ncccn1)C2.Cl.Cl` | 13.59 |
| 45 | `O=C(O)C(F)(F)F.[H][C@@]12COC[C@]1(COCC(=O)N(C)C)CN(CC1CCC1)C2` | 18.98 |
| 46 | `CC(=O)Nc1nc(CN2CCn3c(nnc3C3CC3)C2)cs1` | 13.95 |
| 47 | `c1ccc(-c2cc(CC3(NCc4ncc[nH]4)COC3)no2)cc1` | -2.419 and -0.2591 |
| 48 | `CCN1CCC(NC(=O)CN2CCCCC2Cn2cc(C)cn2)CC1` (stereo not drawn) | -65.27 |
| 49 | `O=C(c1cccnc1)N1CCC2(CNS(=O)(=O)c3cnccc3O2)C1` (stereo not drawn) | 7.422 |
| 50 | `[H][C@]12CCCCN1CCC[C@H]2CN(C)Cc1cnn(-c2ccccc2C)c1` | 1.401 and 4.228 |
| 51 | `Cc1nc2[nH]cc(C(=O)N3CCCCC3c3ccc(F)cc3)c(=O)n2n1` (stereo not drawn) | -51.02 |
| 52 | `COc1cc(-c2nc3c([nH]2)CCCNC3=O)ccc1OC(C)C` | -2.152 |
| 53 | `c1cnn(-c2ccc(CN3CCCC(Cn4cncn4)C3)cc2)c1` (stereo not drawn) | -10.06 |
| 54 | `Cl.Cl.O=C(NCc1cncc2c1CCN(Cc1ccccc1)C2)C1CC1` | -20.76 and -9.307 |
| 55 | `Cc1nc(C)n(CC2CCCN(CCOc3ccccc3F)C2)n1` (stereo not drawn) | -3.731 |
| 56 | `CC(C)c1nnc2n1CCN(Cc1nc(-c3ccoc3)no1)C2` | -15.95 |
| 57 | `O=C(O)C(F)(F)F.O=C1CC2(CCN(CC3CC3)C2)CN1c1ccc2c(c1)OCO2` (stereo not drawn) | -4.845 |
| 58 | `O=C(O)C(F)(F)F.O=C(O)C(F)(F)F.[H][C@@]12CCN(Cc3cc(C)on3)C[C@@]1([H])O[C@@H](C(=O)Nc1cccnc1C)C2` | -29.9 |
| 59 | `Cc1ccc(C(NCC(=O)N2CCNC(=O)C2)C(F)(F)F)cc1` (stereo not drawn) | -23.6 |
| 60 | `O=C(O)C(F)(F)F.O=C(O)C(F)(F)F.[H][C@@]12CCN(Cc3ccncc3)C(=O)[C@@]1([H])CN(Cc1ccc(C)s1)C2` | -7.839 |
| 61 | `CN(Cc1cscn1)C1CCCN(Cc2noc(C3CC3)n2)C1` (stereo not drawn) | -2.278 |
| 62 | `CCc1noc(C2CC(=O)N(CCN(C)C)C2)n1` (stereo not drawn) | -31.21 |
| 63 | `O=C(O)COc1ccc(Cl)cc1CN1CCC2(CCNCC2)CC1` | 32.57 |
| 64 | `CN1CCC(Oc2ccc(NC(=O)c3ccccc3)cc2)CC1` | 10.61 |
| 65 | `O=C(c1ccnn1-c1ccc2ccccn12)N1CCCC1` | 5.345 |
| 66 | `Oc1nc(N2CCOCC2)nc2nccc(-c3ccccn3)c12` | 11.58 |
| 67 | `Cc1noc(C)c1CCC(=O)NCC1(O)CCCN(c2ccccn2)C1` (stereo not drawn) | -18.34 |
| 68 | `CC(C)(C)C(=O)N1CCCC1(C(=O)N1CCCC1)c1cnccn1` (stereo not drawn) | -16.86 |
| 69 | `CC1CCN(c2ncc(C#N)c(N)n2)CC1` | -3.004 |
| 70 | `CC(C)(C)NC(=O)NC(=O)CNc1c(F)cccc1N1CCCC1` | -24.61 |
| 71 | `[H][C@@]12CCC(=O)N(CCNC)[C@]1([H])CCN(c1ncc(F)cn1)C2` | 5.472 |
| 72 | `Cc1ccc(NC2CCCN(Cc3ccc(Cl)cc3)C2)nn1` (stereo not drawn) | 66.25 |
| 73 | `Cc1cc(F)ccc1-n1cc(O)c(C(=O)NCC[S+](C)[O-])n1` (stereo not drawn) | -8.274 |
| 74 | `O=S(=O)(c1ccccc1Cl)N1CCC2(CC1)OCCS2` | -9.385 and 12.07 |
| 75 | `CNC(=O)c1cc2c(nc1NCC1CC1)CCN(c1ncccn1)CC2` | 19.55 |
| 76 | `Cc1ccc2nc(CN3CCN(C4CCCC4)C(=O)C3)cc(O)c2c1` | -26.29 |
| 77 | `O=c1[nH]c(NCc2cccc(-c3ccccc3)c2)nc2c1CCNC2` | -8.441 |
| 78 | `CC(C)Cc1nc(CS(C)(=O)=O)n(-c2ccccn2)n1` | 16.08 |
| 79 | `CNc1nc(CNC(=O)Nc2cccc(C(C)OC)c2)cs1` (stereo not drawn) | -30.54 |
| 80 | `Cc1ccc(C(=O)O)c(N2Cc3cnc(C(C)(C)C)nc3C2)n1` | -5.123 and -2.854 |
| 81 | `COCC(=O)N1Cc2c(-c3cccc(C)c3)nc(N)nc2C1C` (stereo not drawn) | 7.896 and -15.56 |
| 82 | `O=C(O)C(F)(F)F.O=C(O)C(F)(F)F.[H][C@]12COC[C@H](N(C)C)[C@@]1([H])CN(Cc1ccc3c(c1)OCO3)C2` | -7.052 and -3.873 |
| 83 | `Cc1nc(C)n(CC2CN(CCc3cccs3)CCO2)n1` (stereo not drawn) | -17.08 |

The last 7 entries again:

SMILES	effect
O=c1[nH]c(NCc2cccc(-c3ccccc3)c2)nc2c1CCNC2	-8.441
CC(C)Cc1nc(CS(C)(=O)=O)n(-c2ccccn2)n1	16.08
CNc1nc(CNC(=O)Nc2cccc(C(C)OC)c2)cs1 (stereo not drawn)	-30.54
Cc1ccc(C(=O)O)c(N2Cc3cnc(C(C)(C)C)nc3C2)n1	-5.123 and -2.854
COCC(=O)N1Cc2c(-c3cccc(C)c3)nc(N)nc2C1C (stereo not drawn)	7.896 and -15.56
O=C(O)C(F)(F)F.O=C(O)C(F)(F)F.[H][C@]12COC[C@H](N(C)C)[C@@]1([H])CN(Cc1ccc3c(c1)OCO3)C2	-7.052 and -3.873
Cc1nc(C)n(CC2CN(CCc3cccs3)CCO2)n1 (stereo not drawn)	-17.08

From ChEMBL document CHEMBL3988442, “University of Dundee, Small-Polar-MMV Screening Library” (2021).